# Laboratory results: paper PMC6359284 (Molecules, 2019)
# Test: general procedure: Fmoc solid-phase peptide synthesis; NovaSyn TGR resin (0.25 mmol/g); HATU/DIPEA
# Conditions: whole synthesis, analytical RP-HPLC
row,Substance,final HPLC purity
1,Ac-VGDLTYLKK(FB),>99%
2,Ac-VGDLTYLKK(FB)-PEG28,>95%
3,FB-VGDLTYLKK,>99%
4,FB-VGDLTYLKK(FB),>99%
5,FB-VGDLTYLKK(FB)-PEG28,>99%
6,GIDLTSLTK(FB),>97%
7,Me-VGDLTYLKK(FB),>99%
8,PEG12-VGDLTYLKK(FB),>99%
9,RGDLADLRK(FB),>99%
10,VGDLTYLKK(FB),>96%
11,VGDLTYLKK(FB)-PEG28,>99%
